PubChem BioAssay AID1259425 – University of Nebraska Medical Center | 2018

- Aim: 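Seek colon cancer weak points whose silencing resembles KSR1 loss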 (primary screen)
- Cell system: HCT116 human colon cancer cells
- Knock-down reagent: siRNA pool against human genes, 50 nM siRNA
- Measured: 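After 50 nM siRNA pool, branched-DNA assay measures six marker transcripts per well, minus blank, normalised to the geometric mean of two housekeeping transcripts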
- Reading the numbers: BNIP3L mRNA: higher = more BNIP3L transcript after knockdown; NDRG1 mRNA: higher = more NDRG1 transcript after knockdown
In all, the deposit lists about 14,000 reagents; shown is an unselected part. Not all columns of the deposit are shown. Not stated in the record: the time to read-out.

PDIA4 → BNIP3L mRNA, set 1: 0.0487; NDRG1 mRNA, set 1: 0.0255
ARL4D → BNIP3L mRNA, set 1: 0.0504; NDRG1 mRNA, set 1: 0.0693
CAP1 → BNIP3L mRNA, set 1: 0.249; NDRG1 mRNA, set 1: 0.277
ACVR1B → BNIP3L mRNA, set 1: 0.116; NDRG1 mRNA, set 1: 0.233
SEC14L2 → BNIP3L mRNA, set 1: 0.0245; NDRG1 mRNA, set 1: 0.183
B4GALT6 → BNIP3L mRNA, set 1: 0.0725; NDRG1 mRNA, set 1: 0.121
MYH16 → BNIP3L mRNA, set 1: 1.68; NDRG1 mRNA, set 1: 1.59
KRABD3 → BNIP3L mRNA, set 1: 0.187; NDRG1 mRNA, set 1: 0.349
ELOVL5 → BNIP3L mRNA, set 1: 0.0857; NDRG1 mRNA, set 1: 0.0482
NDC80 → BNIP3L mRNA, set 1: 0.145; NDRG1 mRNA, set 1: 0.286
GSK3B → BNIP3L mRNA, set 1: 0.183; NDRG1 mRNA, set 1: 0.0485
DPYS → BNIP3L mRNA, set 1: 0.17; NDRG1 mRNA, set 1: 0.249

Records above whose gene name starts with A or a:
ARL4D → BNIP3L mRNA, set 1: 0.0504; NDRG1 mRNA, set 1: 0.0693
ACVR1B → BNIP3L mRNA, set 1: 0.116; NDRG1 mRNA, set 1: 0.233

The listing continues:
FPR2 → BNIP3L mRNA, set 1: 0.193; NDRG1 mRNA, set 1: 0.568
CDCA4 → BNIP3L mRNA, set 1: 0.0905; NDRG1 mRNA, set 1: 0.113
TMEM255A → BNIP3L mRNA, set 1: 0.0813; NDRG1 mRNA, set 1: 0.23
SLC66A1 → BNIP3L mRNA, set 1: 0.132; NDRG1 mRNA, set 1: 0.134
PCNX2 → BNIP3L mRNA, set 1: 0.0904; NDRG1 mRNA, set 1: 0.396
DNAJA1 → BNIP3L mRNA, set 1: 0.182; NDRG1 mRNA, set 1: 0.267
MYH9 → BNIP3L mRNA, set 1: 0.0981; NDRG1 mRNA, set 1: 0.0745
